# Assay results from the supplement of paper PMC12819154, “High-throughput peptide-centric local stability assay extends protein–ligand identification to membrane proteins, tissues and bacteria” (Nature Structural & Molecular Biology, 2025).
# Protein sequences, listed by entry. Tags and fused reporters are not part of them. Lines headed by an entry give the natural chain unless they say otherwise; changes in a name come on top.
# UniProt P32703: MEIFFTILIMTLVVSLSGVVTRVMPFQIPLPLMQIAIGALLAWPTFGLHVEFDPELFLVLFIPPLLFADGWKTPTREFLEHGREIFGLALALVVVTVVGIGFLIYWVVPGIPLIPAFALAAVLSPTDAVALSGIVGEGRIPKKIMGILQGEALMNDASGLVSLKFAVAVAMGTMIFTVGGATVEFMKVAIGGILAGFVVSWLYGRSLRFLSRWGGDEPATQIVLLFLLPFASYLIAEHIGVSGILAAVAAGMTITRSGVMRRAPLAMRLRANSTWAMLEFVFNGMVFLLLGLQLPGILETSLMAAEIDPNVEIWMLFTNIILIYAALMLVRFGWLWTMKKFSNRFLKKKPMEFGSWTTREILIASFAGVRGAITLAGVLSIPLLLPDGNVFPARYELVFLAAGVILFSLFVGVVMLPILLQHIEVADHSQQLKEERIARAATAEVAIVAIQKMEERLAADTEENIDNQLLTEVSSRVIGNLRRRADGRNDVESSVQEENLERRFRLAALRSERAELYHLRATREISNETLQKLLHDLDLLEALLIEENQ
# UniProt P30748: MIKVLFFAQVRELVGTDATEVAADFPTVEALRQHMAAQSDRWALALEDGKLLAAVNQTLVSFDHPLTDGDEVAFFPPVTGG
# UniProt P31063: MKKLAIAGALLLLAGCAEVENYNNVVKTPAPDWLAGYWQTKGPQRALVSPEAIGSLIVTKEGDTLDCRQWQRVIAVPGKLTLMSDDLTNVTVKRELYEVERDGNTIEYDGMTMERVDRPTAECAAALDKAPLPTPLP
# UniProt P32173: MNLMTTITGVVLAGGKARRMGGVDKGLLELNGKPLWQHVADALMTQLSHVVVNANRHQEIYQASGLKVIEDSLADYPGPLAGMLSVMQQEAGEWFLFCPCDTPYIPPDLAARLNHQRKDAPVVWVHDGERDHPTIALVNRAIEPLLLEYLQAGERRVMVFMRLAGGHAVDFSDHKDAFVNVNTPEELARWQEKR
# UniProt P31069: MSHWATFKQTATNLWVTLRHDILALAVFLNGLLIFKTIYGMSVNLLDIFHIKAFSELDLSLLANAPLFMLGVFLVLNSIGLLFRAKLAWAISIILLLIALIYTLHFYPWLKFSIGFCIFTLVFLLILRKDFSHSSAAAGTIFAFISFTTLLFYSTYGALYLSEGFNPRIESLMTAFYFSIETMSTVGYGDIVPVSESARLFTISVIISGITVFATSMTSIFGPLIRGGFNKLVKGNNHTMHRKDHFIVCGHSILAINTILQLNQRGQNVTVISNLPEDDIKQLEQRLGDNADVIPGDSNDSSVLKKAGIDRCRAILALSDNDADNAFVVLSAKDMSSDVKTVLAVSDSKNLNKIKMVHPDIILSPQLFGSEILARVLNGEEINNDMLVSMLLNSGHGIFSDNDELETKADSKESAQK
# UniProt P26458: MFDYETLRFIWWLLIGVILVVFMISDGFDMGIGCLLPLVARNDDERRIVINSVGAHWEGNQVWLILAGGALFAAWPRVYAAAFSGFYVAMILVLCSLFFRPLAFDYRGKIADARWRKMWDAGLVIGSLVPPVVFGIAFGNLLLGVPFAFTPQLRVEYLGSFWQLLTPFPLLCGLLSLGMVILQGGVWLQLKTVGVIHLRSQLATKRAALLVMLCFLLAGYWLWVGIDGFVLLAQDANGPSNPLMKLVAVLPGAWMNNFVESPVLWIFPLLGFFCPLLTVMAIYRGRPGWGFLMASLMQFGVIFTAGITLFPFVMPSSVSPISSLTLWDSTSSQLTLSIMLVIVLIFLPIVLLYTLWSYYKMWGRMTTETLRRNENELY
# UniProt P32680: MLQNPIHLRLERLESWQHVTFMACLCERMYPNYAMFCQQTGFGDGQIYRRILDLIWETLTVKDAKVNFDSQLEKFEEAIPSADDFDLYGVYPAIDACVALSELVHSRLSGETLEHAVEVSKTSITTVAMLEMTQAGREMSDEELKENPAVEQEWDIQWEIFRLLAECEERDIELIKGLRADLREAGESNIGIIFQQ
# UniProt P31802: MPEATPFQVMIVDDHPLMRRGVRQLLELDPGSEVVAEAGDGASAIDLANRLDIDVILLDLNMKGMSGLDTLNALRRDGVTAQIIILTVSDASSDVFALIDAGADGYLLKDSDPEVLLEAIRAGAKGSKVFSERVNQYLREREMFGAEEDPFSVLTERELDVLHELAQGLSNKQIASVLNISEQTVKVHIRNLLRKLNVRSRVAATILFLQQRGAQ
# UniProt P33029: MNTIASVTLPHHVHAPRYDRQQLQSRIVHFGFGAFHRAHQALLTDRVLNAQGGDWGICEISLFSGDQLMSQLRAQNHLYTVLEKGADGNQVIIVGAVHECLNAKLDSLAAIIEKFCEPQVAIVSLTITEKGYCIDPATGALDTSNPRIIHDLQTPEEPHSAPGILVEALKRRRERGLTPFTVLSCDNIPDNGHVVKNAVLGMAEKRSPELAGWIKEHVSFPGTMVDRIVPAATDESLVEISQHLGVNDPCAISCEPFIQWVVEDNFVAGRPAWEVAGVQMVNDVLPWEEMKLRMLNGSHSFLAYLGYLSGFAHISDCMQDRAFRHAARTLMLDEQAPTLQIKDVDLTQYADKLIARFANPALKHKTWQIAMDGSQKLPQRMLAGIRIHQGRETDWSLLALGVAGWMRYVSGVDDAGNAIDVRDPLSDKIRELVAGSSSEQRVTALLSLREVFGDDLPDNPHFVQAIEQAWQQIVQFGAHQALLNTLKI
# UniProt P28903: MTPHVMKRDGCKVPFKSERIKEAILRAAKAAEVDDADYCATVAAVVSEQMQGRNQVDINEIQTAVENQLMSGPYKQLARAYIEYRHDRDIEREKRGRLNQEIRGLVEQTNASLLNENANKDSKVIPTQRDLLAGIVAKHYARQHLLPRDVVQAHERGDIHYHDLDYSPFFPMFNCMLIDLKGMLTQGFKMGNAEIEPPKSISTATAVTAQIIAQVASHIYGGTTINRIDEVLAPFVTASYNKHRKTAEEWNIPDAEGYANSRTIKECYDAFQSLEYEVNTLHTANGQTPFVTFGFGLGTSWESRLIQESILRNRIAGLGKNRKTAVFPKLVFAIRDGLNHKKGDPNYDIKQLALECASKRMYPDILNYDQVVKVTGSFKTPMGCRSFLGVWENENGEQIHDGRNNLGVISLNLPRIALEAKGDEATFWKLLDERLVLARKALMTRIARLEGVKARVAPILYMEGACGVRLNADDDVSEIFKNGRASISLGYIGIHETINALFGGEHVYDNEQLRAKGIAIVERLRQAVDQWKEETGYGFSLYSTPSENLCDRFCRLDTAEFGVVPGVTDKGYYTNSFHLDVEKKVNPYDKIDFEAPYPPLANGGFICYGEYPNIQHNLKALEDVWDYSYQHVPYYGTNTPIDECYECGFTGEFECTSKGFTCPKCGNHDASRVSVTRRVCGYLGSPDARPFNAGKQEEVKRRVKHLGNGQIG
# UniProt P32677: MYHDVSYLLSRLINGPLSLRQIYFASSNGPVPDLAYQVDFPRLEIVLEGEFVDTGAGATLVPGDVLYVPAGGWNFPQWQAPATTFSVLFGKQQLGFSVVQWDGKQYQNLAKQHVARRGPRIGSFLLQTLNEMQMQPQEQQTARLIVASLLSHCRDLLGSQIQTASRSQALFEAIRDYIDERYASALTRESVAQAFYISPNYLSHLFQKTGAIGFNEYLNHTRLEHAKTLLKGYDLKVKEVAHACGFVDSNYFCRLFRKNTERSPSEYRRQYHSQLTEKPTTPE
# UniProt P33363: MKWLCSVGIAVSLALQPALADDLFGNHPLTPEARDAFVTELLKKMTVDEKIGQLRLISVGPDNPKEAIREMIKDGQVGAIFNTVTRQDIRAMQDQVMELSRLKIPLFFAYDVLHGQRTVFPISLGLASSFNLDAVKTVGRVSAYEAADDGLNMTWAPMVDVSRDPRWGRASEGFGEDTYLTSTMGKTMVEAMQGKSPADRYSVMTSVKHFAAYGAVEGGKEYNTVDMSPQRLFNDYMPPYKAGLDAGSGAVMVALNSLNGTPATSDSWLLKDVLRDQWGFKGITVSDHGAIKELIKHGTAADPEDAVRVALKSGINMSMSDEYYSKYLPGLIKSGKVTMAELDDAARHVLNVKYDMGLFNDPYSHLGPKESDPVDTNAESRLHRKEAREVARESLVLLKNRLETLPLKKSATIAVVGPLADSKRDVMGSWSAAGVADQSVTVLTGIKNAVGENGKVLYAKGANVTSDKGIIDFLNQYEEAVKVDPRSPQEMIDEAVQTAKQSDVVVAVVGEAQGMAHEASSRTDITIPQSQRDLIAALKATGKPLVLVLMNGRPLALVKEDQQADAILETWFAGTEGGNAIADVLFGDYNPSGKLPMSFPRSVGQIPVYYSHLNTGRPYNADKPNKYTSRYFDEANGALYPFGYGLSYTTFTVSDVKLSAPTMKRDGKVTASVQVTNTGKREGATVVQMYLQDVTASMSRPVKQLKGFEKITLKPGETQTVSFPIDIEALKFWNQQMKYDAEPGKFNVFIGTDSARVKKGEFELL
# UniProt P32140: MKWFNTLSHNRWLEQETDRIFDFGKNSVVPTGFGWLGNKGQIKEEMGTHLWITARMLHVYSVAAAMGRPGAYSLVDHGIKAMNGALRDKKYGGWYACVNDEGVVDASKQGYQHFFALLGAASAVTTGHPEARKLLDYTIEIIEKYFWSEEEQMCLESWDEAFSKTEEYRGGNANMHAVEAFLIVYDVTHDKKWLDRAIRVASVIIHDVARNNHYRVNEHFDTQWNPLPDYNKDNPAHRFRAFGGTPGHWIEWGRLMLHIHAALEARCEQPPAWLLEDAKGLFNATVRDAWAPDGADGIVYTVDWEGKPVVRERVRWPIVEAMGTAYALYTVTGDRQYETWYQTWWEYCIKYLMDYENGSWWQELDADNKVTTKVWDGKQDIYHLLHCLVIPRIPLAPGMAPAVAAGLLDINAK
# UniProt P31471: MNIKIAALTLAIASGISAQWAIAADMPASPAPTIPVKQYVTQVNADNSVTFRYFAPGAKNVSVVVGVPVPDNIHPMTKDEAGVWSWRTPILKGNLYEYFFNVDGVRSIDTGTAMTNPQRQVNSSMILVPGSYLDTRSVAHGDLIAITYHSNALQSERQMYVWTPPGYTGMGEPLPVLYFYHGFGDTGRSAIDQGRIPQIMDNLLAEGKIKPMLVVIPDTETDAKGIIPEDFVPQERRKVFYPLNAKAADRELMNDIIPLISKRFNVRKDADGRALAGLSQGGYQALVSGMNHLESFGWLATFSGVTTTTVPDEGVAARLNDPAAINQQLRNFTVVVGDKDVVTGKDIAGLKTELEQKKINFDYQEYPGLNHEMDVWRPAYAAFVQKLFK
# UniProt P28306: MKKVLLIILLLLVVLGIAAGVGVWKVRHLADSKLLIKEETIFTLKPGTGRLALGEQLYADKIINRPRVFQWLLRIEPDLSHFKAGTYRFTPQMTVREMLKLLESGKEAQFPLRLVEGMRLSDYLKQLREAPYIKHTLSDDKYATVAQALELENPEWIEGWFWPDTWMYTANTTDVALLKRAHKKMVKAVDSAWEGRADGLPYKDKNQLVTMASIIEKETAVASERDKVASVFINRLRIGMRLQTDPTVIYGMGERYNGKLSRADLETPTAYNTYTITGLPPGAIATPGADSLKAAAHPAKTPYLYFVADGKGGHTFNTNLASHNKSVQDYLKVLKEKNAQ
# UniProt P33228: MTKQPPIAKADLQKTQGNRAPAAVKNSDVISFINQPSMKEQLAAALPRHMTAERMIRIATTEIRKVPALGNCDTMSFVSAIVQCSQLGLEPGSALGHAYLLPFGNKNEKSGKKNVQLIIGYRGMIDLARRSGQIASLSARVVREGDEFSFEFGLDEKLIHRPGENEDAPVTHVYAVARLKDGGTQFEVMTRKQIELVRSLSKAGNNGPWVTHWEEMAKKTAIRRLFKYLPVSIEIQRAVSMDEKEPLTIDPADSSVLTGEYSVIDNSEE
# UniProt P24232: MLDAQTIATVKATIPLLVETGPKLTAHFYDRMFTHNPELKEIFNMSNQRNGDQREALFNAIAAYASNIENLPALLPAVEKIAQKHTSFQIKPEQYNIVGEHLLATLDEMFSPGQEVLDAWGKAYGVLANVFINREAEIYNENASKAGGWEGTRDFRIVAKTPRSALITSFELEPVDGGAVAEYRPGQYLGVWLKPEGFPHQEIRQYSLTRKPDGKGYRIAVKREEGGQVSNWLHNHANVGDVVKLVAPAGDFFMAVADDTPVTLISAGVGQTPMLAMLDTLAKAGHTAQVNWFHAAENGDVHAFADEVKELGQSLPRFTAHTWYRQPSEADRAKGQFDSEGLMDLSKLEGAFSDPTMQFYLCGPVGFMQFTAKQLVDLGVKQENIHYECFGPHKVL
# UniProt P31697: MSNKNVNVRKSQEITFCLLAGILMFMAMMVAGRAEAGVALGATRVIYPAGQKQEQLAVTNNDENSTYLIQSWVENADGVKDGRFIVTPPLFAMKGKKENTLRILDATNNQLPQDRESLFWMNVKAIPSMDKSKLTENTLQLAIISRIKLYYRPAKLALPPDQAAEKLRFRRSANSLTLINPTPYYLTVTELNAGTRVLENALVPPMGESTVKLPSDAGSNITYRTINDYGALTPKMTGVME
# The other results are listed elsewhere or left out. Most values lie at the level of the controls, where differences are scatter.
# Compound: CC1(C)S[C@@H]2[C@H](NC(=O)[C@H](N)c3ccccc3)C(=O)N2[C@H]1C(=O)O [ampicillin]
# Assay: log2 fold change of tryptic peptide abundance, ligand vs vehicle (limited proteolysis) (log2 ratio); higher = more trypsin-susceptible (destabilized)
# Conditions: ligand concentration: 10 uM; sample: E. coli crude lysate
row,Target,log2 fold change
1,"UniProt P32703 (peptide sequence: AATAEVAIVAIQK, peptide start residue: 440)",-0.123
2,"UniProt P30748 (peptide sequence: WALALEDGK, peptide start residue: 42)",0.181
3,"UniProt P31828 (peptide sequence: PFLLANTR, peptide start residue: 184)",-0.223
4,"UniProt P31063 (peptide sequence: EGDTLDCR, peptide start residue: 61)",-0.0761
5,"UniProt P32173 (peptide sequence: KDAPVVWVHDGERDHPTIALVNR, peptide start residue: 118)",-0.689
6,"UniProt P33595 (peptide sequence: GPQGEEKEIESR, peptide start residue: 319)",0.502
7,"UniProt P31069 (peptide sequence: TVLAVSDSK, peptide start residue: 341)",-0.0634
8,"UniProt P32718 (peptide sequence: ETLVAMTQK, peptide start residue: 257)",-0.277
9,"UniProt P26458 (peptide sequence: RNENELY, peptide start residue: 372)",0.0274
10,"UniProt P32680 (peptide sequence: LSGETLEHAVEVSK, peptide start residue: 108)",0.217
11,"UniProt P27242 (peptide sequence: SIQIVSPTYTVK, peptide start residue: 326)",-0.352
12,"UniProt P27111 (peptide sequence: LTDAGEVWR, peptide start residue: 57)",-0.104
13,"UniProt P31802 (peptide sequence: GSKVFSER, peptide start residue: 126)",-0.455
14,"UniProt P33029 (peptide sequence: AQNHLYTVLEK, peptide start residue: 74)",0.336
15,"UniProt P28903 (peptide sequence: LVFAIRDGLNHK, peptide start residue: 330)",-0.882
16,"UniProt P30843 (peptide sequence: IAGLDVGADDYLVKPFALEELHAR, peptide start residue: 88)",0.105
17,"UniProt P31474 (peptide sequence: SKPNRVPSESE, peptide start residue: 465)",0.124
18,"UniProt P32669 (peptide sequence: DAQGMVEEAKR, peptide start residue: 64)",0.336

row,Target,log2 fold change
1,"UniProt P25549 (peptide sequence: VPTFVYWK, peptide start residue: 385)",0.402
2,"UniProt P30011 (peptide sequence: ENHIIASGSVR, peptide start residue: 187)",0.12
3,"UniProt P27298 (peptide sequence: QHLYSISDEQLRPYFPENK, peptide start residue: 343)",-0.299
4,"UniProt P33362 (peptide sequence: ADALPAFEK, peptide start residue: 172)",0.368
5,"UniProt P32677 (peptide sequence: SQALFEAIR, peptide start residue: 167)",0.266
6,"UniProt P33363 (peptide sequence: LISVGPDNPKEAIR, peptide start residue: 56)",-0.767
7,"UniProt P30176 (peptide sequence: AKFEQHAELR, peptide start residue: 103)",-0.306
8,"UniProt P32140 (peptide sequence: GLFNATVR, peptide start residue: 280)",-0.111
9,"UniProt P31471 (peptide sequence: VFYPLNAK, peptide start residue: 239)",0.415
10,"UniProt P27253 (peptide sequence: NEQIASLER, peptide start residue: 479)",-0.496
11,"UniProt P28306 (peptide sequence: DKVASVFINR, peptide start residue: 226)",0.393
12,"UniProt P27830 (peptide sequence: VDICDRAELAR, peptide start residue: 58)",-1.03
13,"UniProt P28861 (peptide sequence: RPGHMTAEHYW, peptide start residue: 238)",0.156
14,"UniProt P33228 (peptide sequence: KQIELVR, peptide start residue: 192)",0.145
15,"UniProt P24232 (peptide sequence: QLVDLGVK, peptide start residue: 374)",0.316
16,"UniProt P25535 (peptide sequence: HSAALMLAGMQGFR, peptide start residue: 341)",0.561
17,"UniProt P31697 (peptide sequence: TINDYGALTPK, peptide start residue: 225)",0.0593

# Look-ups from above:
# log2 fold change, UniProt P27253 (peptide sequence: NEQIASLER, peptide start residue: 479) reads -0.496
# log2 fold change, UniProt P33228 (peptide sequence: KQIELVR, peptide start residue: 192) reads 0.145
